From paper PMC7796559, “Connecting the conformational behavior of cyclic octadepsipeptides with their ionophoric property and membrane permeability” (Organic & biomolecular chemistry, 2020)

Assay: NMR titration with monovalent cations in CD3OH
Assay type: physicochemical
Details: qualitative, from change in asymmetric : symmetric ratio

## CC(C)CC1C(=O)OC(Cc2ccccc2)C(=O)N(C)C(CC(C)C)C(=O)OC(C)C(=O)N(C)C(CC(C)C)C(=O)OC(Cc2ccccc2)C(=O)N(C)C(CC(C)C)C(=O)OC(C)C(=O)N1C (stereo not shown) [PF1022A (1)]
  Order of cation affinities of the symmetric conformer: Cs^+ > K^+ > Na^+ > NH4^+
